From publication PMC8216464
These are yes or no findings as the source states them, for the method shown. Some binding calls cover weakened binding; strength is not graded here.

By UniProt entry, the sequences of proteins in these tests, tags left out. Where a name states a change or a piece, a line headed by the entry shows the natural chain unless it says otherwise. Residues count along the entry.
UniProt Q9ULM6: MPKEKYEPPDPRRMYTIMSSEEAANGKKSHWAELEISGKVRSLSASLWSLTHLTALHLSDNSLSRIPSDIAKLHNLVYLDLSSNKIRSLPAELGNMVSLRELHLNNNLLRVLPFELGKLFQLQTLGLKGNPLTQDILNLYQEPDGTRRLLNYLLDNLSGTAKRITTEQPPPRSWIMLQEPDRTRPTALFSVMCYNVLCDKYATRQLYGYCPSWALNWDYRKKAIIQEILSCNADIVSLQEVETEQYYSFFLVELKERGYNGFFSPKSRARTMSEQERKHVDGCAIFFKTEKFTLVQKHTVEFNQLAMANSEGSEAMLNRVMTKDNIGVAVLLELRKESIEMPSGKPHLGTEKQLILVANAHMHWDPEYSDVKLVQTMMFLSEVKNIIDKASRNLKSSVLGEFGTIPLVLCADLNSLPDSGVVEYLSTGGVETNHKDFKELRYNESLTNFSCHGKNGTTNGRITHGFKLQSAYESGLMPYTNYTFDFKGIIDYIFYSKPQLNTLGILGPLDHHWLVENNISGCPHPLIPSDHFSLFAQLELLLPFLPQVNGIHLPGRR
human CCR4a ΔN (deletion of residues M1–K28): residues 29-557 of Q9ULM6
UniProt Q9UIV1: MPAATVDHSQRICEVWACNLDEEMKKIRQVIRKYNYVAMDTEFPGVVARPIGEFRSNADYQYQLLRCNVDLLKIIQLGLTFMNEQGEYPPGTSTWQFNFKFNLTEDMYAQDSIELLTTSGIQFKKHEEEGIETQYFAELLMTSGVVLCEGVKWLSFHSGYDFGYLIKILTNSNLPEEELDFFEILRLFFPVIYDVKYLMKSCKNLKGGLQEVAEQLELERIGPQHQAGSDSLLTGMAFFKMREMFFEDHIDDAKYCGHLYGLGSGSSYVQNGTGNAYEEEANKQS

Columns and labels:
[1] = target: human CCR4a D491A (active site mutant) (human) (UniProt Q9ULM6); assay: SEC + other: anion-exchange chromatography (co-elution); MBP-tagged CCR4 and CAF1 variants co-expressed in E. coli, isolated on amylose resin, tags cleaved; complex separated from excess CAF1 on Superdex 200 (10 mM HEPES pH 7.5, 300 mM NaCl, 2 mM DTT, 18°C), then Source 15Q gradient 75 to 200 mM NaCl, where CCR4 and CAF1 co-eluted as a sharp peak; both purified
[2] = target: human CCR4a ΔN (deletion of residues M1–K28) (human) (UniProt Q9ULM6); assay: as above
[3] = target: human CCR4a D491N (human) (UniProt Q9ULM6); assay: as above
[4] = target: human CCR4a R87T (human) (UniProt Q9ULM6); assay: as above
[5] = target: human CCR4a R65E (human) (UniProt Q9ULM6); assay: as above
[6] = target: human CCR4a (Hs CCR4a) (human) (UniProt Q9ULM6); assay: crystal structure; co-expressed and purified CCR4a-CAF1a complex; crystals from 100 mM MES (pH = 6.0), 100 mM MgCl2, 8% PEG 6000 at 18°C; 3.3 Å, space group C2; both purified
[7] = target: human CCR4a N481T (human) (UniProt Q9ULM6); assay: SEC + other: anion-exchange chromatography (co-elution); MBP-tagged CCR4 and CAF1 variants co-expressed in E. coli, isolated on amylose resin, tags cleaved; complex separated from excess CAF1 on Superdex 200 (10 mM HEPES pH 7.5, 300 mM NaCl, 2 mM DTT, 18°C), then Source 15Q gradient 75 to 200 mM NaCl, where CCR4 and CAF1 co-eluted as a sharp peak; both purified
[8] = target: human CCR4a N481Y (human) (UniProt Q9ULM6); assay: as above
[9] = target: human CCR4a N481A (human) (UniProt Q9ULM6); assay: as above
[10] = target: human CCR4a (Hs CCR4a) (human) (UniProt Q9ULM6); assay: as above

Measured: binding

human CAF1a (Hs CAF1a) (from UniProt Q9UIV1 1-285) (enzyme)
binds: [1] | [2] | [3] | [4] | [5] | [6]

human CAF1a D40A E42A (active site mutant) (from UniProt Q9UIV1 1-285) (enzyme)
binds: [1] | [7] | [8] | [9] | [10]

human CAF1a S112A (from UniProt Q9UIV1 1-285) (enzyme)
binds: [1]

human CAF1a ΔC (deletion of residues S264–S285) (from UniProt Q9UIV1 1-263) (domain or fragment)
binds: [10]
